PubChem BioAssay AID1159578 | Peter MacCallum Cancer Centre | 2015

- Assay: 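Knock-downs that alter how fast lymphatic endothelial cells migrate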 (primary screen)
- System: human lymphatic endothelial cells
- Reagents: siRNA pool against human genes, 40 nM
- Time to read-out: 48 h after transfection
- Measurement: 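High-content imaging of dye-stained cells in a scratch assay measures filled wound area and nuclei per well; duplicate means given as ratio to mock and robust z-score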
- Direction: migration robust z-score: higher = faster migration into the scratch; nuclei per well: higher = more cells in the well
- Hit rule: 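Pools averaging fewer than 3300 nuclei are never called; remaining pools count as changed when migration robust z lies outside -2 to 2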
- Calls: active = migration changed; inactive = no migration change, or too few cells
Here is an unselected part of about 18,000 deposited reagents. About 1,030 of them (5.7%) count as active. 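Inactive calls also include pools with fewer than 3300 nuclei, whose migration was not assessed.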 Raw values vary from plate to plate and are shown uncorrected. Entries without a mark were called inactive. Further read-outs or replicates are left out here. Reagent sequences are not shown.

| Target gene | PubChem SID | migration robust z-score | migration class with cell-count check | nuclei per well, duplicate mean |
| --- | --- | --- | --- | --- |
| AIFM2 (AIF family member 2, ferroptosis suppressor) | SID255361547 | -1.09 | migration z between -2 and 2; enough cells | 5071 |
| KRTCAP3 (keratinocyte associated protein 3) | SID255364044 | 2.35 (active) | migration z above 2; enough cells | 6748 |
| MRPL32 (mitochondrial ribosomal protein L32) | SID255360069 | 0.57 | migration z between -2 and 2; enough cells | 6630 |
| NEK2 (NIMA related kinase 2) | SID255351202 | -0.6 | migration z between -2 and 2; enough cells | 6152 |
| RHOB (ras homolog family member B) | SID255348386 | 0.94 | migration z between -2 and 2; enough cells | 5168 |
| SIGLEC6 (sialic acid binding Ig like lectin 6) | SID255348776 | -1.01 | migration z between -2 and 2; enough cells | 3409 |
| LYPD5 (LY6/PLAUR domain containing 5) | SID255364768 | -1.9 | migration z between -2 and 2; enough cells | 6648 |
| TPRA1 (transmembrane protein adipocyte associated 1) | SID255362903 | 0.78 | migration z between -2 and 2; enough cells | 6199 |
| SYNGR1 (synaptogyrin 1) | SID255354073 | -0.24 | migration z between -2 and 2; enough cells | 4998 |
| RGS20 (regulator of G protein signaling 20) | SID255353669 | -0.48 | migration z between -2 and 2; enough cells | 5830 |
| OR6A2 (olfactory receptor family 6 subfamily A member 2) | SID255353667 | -0.7 | migration z between -2 and 2; enough cells | 5487 |
| IFI27 (interferon alpha inducible protein 27) | SID255350394 | 0.17 | migration z between -2 and 2; enough cells | 5403 |
| TIMM17B (translocase of inner mitochondrial membrane 17B) | SID255354931 | 0.5 | migration z between -2 and 2; enough cells | 5244 |
| PEX3 (peroxisomal biogenesis factor 3) | SID255353600 | -1.3 | migration z between -2 and 2; enough cells | 6136 |
| SIK3 (SIK family kinase 3) | SID255356203 | 1.02 | migration z between -2 and 2; enough cells | 4103 |
| GTF3C4 (general transcription factor IIIC subunit 4) | SID255354194 | 0.13 | migration z between -2 and 2; enough cells | 5335 |
| PRIM1 (DNA primase subunit 1) | SID255351779 | 1.3 | migration z between -2 and 2; enough cells | 4977 |
| ZNF84 (zinc finger protein 84) | SID255353223 | 1.58 | migration z between -2 and 2; enough cells | 6214 |
| RTL6 (retrotransposon Gag like 6) | SID255361265 | -0.04 | migration z between -2 and 2; enough cells | 5269 |
| PLEKHO1 (pleckstrin homology domain containing O1) | SID255357539 | -0.08 | migration z between -2 and 2; enough cells | 5464 |
| ADAM15 (ADAM metallopeptidase domain 15) | SID255353789 | -0.29 | migration z between -2 and 2; enough cells | 7051 |
| CHST7 (carbohydrate sulfotransferase 7) | SID255359090 | -1.42 | migration z between -2 and 2; enough cells | 5808 |
| TNIP1 (TNFAIP3 interacting protein 1) | SID255354991 | -0.05 | migration z between -2 and 2; enough cells | 7062 |
| SOX10 (SRY-box transcription factor 10) | SID255352577 | -0.15 | migration z between -2 and 2; enough cells | 5180 |
| LALBA (lactalbumin alpha) | SID255350715 | -0.24 | migration z between -2 and 2; enough cells | 7153 |
| SENP3 (SUMO specific peptidase 3) | SID255356704 | -0.23 | migration z between -2 and 2; enough cells | 5012 |
| SLC22A10 | SID255365456 | -1.23 | migration z between -2 and 2; enough cells | 6759 |
| TMEM65 (transmembrane protein 65) | SID255363623 | 0.56 | migration z between -2 and 2; enough cells | 4956 |
| SEPTIN10 (septin 10) | SID255363476 | 0.2 | migration z between -2 and 2; enough cells | 5276 |
| DNASE1 (deoxyribonuclease 1) | SID255349333 | -0.23 | migration z between -2 and 2; enough cells | 5525 |
| FMR1NB (FMR1 neighbor) | SID255363668 | 1.18 | migration z between -2 and 2; enough cells | 6402 |
| DEFB105A (defensin beta 105A) | SID255364373 | 1.3 | migration z between -2 and 2; enough cells | 6081 |
| ATP8B4 (ATPase phospholipid transporting 8B4 (putative)) | SID255360551 | -0.1 | migration z between -2 and 2; enough cells | 5684 |
| NME3 (NME/NM23 nucleoside diphosphate kinase 3) | SID255351257 | -2.75 (active) | migration z below -2; enough cells | 3388 |
| HMGN5 (high mobility group nucleosome binding domain 5) | SID255360278 | 0.16 | migration z between -2 and 2; enough cells | 5430 |
| CENPM (centromere protein M) | SID255360165 | -1.46 | migration z between -2 and 2; enough cells | 4947 |
| DDHD1 (DDHD domain containing 1) | SID255360822 | 0.16 | migration z between -2 and 2; enough cells | 6207 |
| PHACTR4 (phosphatase and actin regulator 4) | SID255360116 | -0.94 | migration z between -2 and 2; enough cells | 5512 |
| DGKZ (diacylglycerol kinase zeta) | SID255353617 | 0.24 | migration z between -2 and 2; enough cells | 4869 |
| CFAP298 (cilia and flagella associated protein 298) | SID255359118 | 0.19 | migration z between -2 and 2; enough cells | 4932 |
| ZBTB47 (zinc finger and BTB domain containing 47) | SID255362049 | 0.24 | migration z between -2 and 2; enough cells | 6218 |
| ZNF629 (zinc finger protein 629) | SID255356184 | 0.96 | migration z between -2 and 2; enough cells | 5888 |
| WFIKKN2 | SID255362637 | -1.06 | migration z between -2 and 2; enough cells | 6088 |
| L1TD1 (LINE1 type transposase domain containing 1) | SID255358101 | 1.07 | migration z between -2 and 2; enough cells | 4700 |
| PRMT5 (protein arginine methyltransferase 5) | SID255355054 | 0.05 | migration z between -2 and 2; enough cells | 6492 |
| LLGL1 (LLGL scribble cell polarity complex component 1) | SID255350772 | -0.32 | migration z between -2 and 2; enough cells | 5636 |
| CNTD1 (cyclin N-terminal domain containing 1) | SID255362635 | -1.94 | migration z between -2 and 2; enough cells | 5598 |
| GPN1 (GPN-loop GTPase 1) | SID255355749 | -0.98 | migration z between -2 and 2; enough cells | 5970 |
| DMRT1 (doublesex and mab-3 related transcription factor 1) | SID255349327 | 0.65 | migration z between -2 and 2; enough cells | 6848 |
| EPYC (epiphycan) | SID255349384 | -0.86 | migration z between -2 and 2; enough cells | 6521 |
| DPM3 (dolichyl-phosphate mannosyltransferase subunit 3, regulatory) | SID255357992 | -0.54 | migration z between -2 and 2; enough cells | 4885 |
| SORCS3 (sortilin related VPS10 domain containing receptor 3) | SID255355911 | -0.46 | migration z between -2 and 2; enough cells | 5184 |
| KCNQ5 (potassium voltage-gated channel subfamily Q member 5) | SID255359087 | -0.05 | migration z between -2 and 2; enough cells | 5717 |
| FGF12 (fibroblast growth factor 12) | SID255349677 | 0.54 | migration z between -2 and 2; enough cells | 6556 |
| ZFPL1 (zinc finger protein like 1) | SID255353175 | -0.08 | migration z between -2 and 2; enough cells | 5545 |
| OR1D4 (olfactory receptor family 1 subfamily D member 4) | SID255353518 | 3.18 (active) | migration z above 2; enough cells | 5748 |
| MFF (mitochondrial fission factor) | SID255359188 | -0.99 | migration z between -2 and 2; enough cells | 5551 |

Ordered by “migration robust z-score” (lowest first): 9 of the entries above.
| Target gene | PubChem SID | migration robust z-score | migration class with cell-count check | nuclei per well, duplicate mean |
| --- | --- | --- | --- | --- |
| PEX3 (peroxisomal biogenesis factor 3) | SID255353600 | -1.3 | migration z between -2 and 2; enough cells | 6136 |
| OR6A2 (olfactory receptor family 6 subfamily A member 2) | SID255353667 | -0.7 | migration z between -2 and 2; enough cells | 5487 |
| RTL6 (retrotransposon Gag like 6) | SID255361265 | -0.04 | migration z between -2 and 2; enough cells | 5269 |
| GTF3C4 (general transcription factor IIIC subunit 4) | SID255354194 | 0.13 | migration z between -2 and 2; enough cells | 5335 |
| IFI27 (interferon alpha inducible protein 27) | SID255350394 | 0.17 | migration z between -2 and 2; enough cells | 5403 |
| TIMM17B (translocase of inner mitochondrial membrane 17B) | SID255354931 | 0.5 | migration z between -2 and 2; enough cells | 5244 |
| SIK3 (SIK family kinase 3) | SID255356203 | 1.02 | migration z between -2 and 2; enough cells | 4103 |
| PRIM1 (DNA primase subunit 1) | SID255351779 | 1.3 | migration z between -2 and 2; enough cells | 4977 |
| ZNF84 (zinc finger protein 84) | SID255353223 | 1.58 | migration z between -2 and 2; enough cells | 6214 |
